Measured values published in US20230357722A1, “METHODS FOR IDENTIFYING MODULATORS OF NATURAL KILLER CELL INTERACTIONS” (The Johns Hopkins University, priority 2020, published 2023).
At least one compound was matched to its structure with a doubt left.

What was measured:
TIGIT = assay: RT-qPCR of TIGIT in teNK cells treated with DNMT inhibitors; type: cell-based, mouse; conditions: teNK cells pretreated with DNMT inhibitor; FIG. 10F
Text: (§1) Natural killer cell isolation. Primary splenocytes were isolated by mechanical dissociation from spleens of wild-type FVB/n, MMTV-PyMT, or C3(1)-Tag mice, or from the tumors of MMTV-PyMT mice. NK cells isolated from WT FVB/n mice are defined as healthy NK (hNK) cells and those isolated from tumor bearing mice are defined as tumor-exposed NK (teNK) cells. NK cells isolated from MMTV-PyMT tumors are defined as tumor-infiltrating NK cells. The NK cells were purified from isolated splenocytes using EasySep Mouse NK Cell Isolation Kit per the manufacturer's protocol (#19855; Stemcell Technologies). The isolated cells were then positively selected by FACS by gating on CD49b+/CD3− cells and CD45+/CD49b+/CD3− for NK cells isolated from tumors. NK cells were cultured in media at 37° C. containing 200 U/ml recombinant mouse IL-2 (#402-ML-100, R&D Systems), 5 ng/ml recombinant mouse IL-15 (#447-ML-010, R&D Systems) or 5 ng/ml recombinant mouse IL-I5:IL-15R complex (#14-8152-62, Thermo Fisher) for 16 h before use in assays. […]
(§2) RNA Extraction and Quantitative PCR. […] Quantitative PCR was conducted using the SsoAdvanced Universal SYBR Green Supermix (BioRad #1725271) with 500 pg cDNA and 500 nM primers per reaction. […] Target gene expression values were normalized to GAPDH expression and fold change was calculated as 2-ΔΔCt. […]

KLRG1 = assay: RT-qPCR of KLRG1 in teNK cells treated with DNMT inhibitors; type: cell-based, mouse; conditions: teNK cells pretreated with DNMT inhibitor; FIG. 10F
Text: as §1, §2

Nc1ncn([C@H]2C[C@H](O)[C@@H](CO)O2)c(=O)n1 [decitabine]
gene expression of TIGIT by qPCR (TIGIT): reduced gene expression of TIGIT | gene expression of KLRG1 by qPCR (KLRG1): reduced gene expression of TIGIT and KLRG1
